Consider 1 molecule from PMC4065374.

This assay has as its target T1, His-tagged Aeromonas caviae flagellin-specific chaperone FlaJ (His-FlaJ) (Aeromonas caviae) (UniProt Q9R9R5).
T1 sequence: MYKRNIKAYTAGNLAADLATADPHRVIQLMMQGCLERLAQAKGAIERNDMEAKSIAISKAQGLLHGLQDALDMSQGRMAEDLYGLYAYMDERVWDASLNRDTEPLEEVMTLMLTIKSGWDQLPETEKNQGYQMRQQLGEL
In words: far-Western, overlay or dot blot; purified proteins resolved by SDS-PAGE and blotted; membrane incubated in PBS with purified GST or GST-FlaJ at 0.01 mg ml^−1; detected with αGST-HRP conjugate and ECL; both purified.

These are yes or no findings as the source states them, for the method shown. Tags and fused reporters may be left off the sequences shown.

B1: GST-tagged Aeromonas caviae flagellin-specific chaperone FlaJ (GST-FlaJ) (protein, UniProt Q9R9R5 1-140)
chain: T1 sequence
As to B1, the binding result is “no binding (tested: 0.01 mg ml^−1)”.
